From paper doi:10.1101/2023.06.26.546551
Numbering of substitutions follows the chain as printed. No constants are given. Whether binding was seen depends on the method and setting. Binding seen in cells or lysates may run through a third protein. Some entries that bind do so weakly or less than the wild type.

Protein sequences, listed by entry. Tags and fused reporters are not part of them. Lines headed by an entry give the natural chain unless they say otherwise; changes in a name come on top.
UniProt Q9DBL9, whole entry: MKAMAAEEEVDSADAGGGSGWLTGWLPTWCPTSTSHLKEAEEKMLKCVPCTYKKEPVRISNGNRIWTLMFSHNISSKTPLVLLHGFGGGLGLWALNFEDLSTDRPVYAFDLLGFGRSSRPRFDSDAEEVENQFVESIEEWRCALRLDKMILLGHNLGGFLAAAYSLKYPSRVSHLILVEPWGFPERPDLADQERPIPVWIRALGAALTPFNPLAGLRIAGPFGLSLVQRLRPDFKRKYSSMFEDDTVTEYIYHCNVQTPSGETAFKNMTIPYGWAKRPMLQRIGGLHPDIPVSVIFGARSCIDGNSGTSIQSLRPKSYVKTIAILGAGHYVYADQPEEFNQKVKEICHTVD

How the values were obtained:
Assay in all cases: pull-down
[1] = target: T1, smt3-mATGL288-StrepII N209A (mouse) (UniProt Q8BJ56)
T1 sequence: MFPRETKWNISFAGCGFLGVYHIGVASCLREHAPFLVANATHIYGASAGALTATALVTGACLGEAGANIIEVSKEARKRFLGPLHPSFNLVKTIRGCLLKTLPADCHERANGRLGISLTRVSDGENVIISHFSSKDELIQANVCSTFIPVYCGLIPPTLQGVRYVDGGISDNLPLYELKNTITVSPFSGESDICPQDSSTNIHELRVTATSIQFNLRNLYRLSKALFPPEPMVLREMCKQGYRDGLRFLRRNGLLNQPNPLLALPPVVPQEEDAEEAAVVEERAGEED

[2] = target: T2, smt3-mATGL288-StrepII (mouse adipose triglyceride lipase truncated after D288), wild type (mouse) (UniProt Q8BJ56)
T2 sequence: T1 sequence with A209N

[3] = target: T3, smt3-mATGL288-StrepII I212S (mouse) (UniProt Q8BJ56)
T3 sequence: T1 sequence with A209N, I212S

[4] = target: T4, smt3-mATGL288-StrepII N209A/I212A/N215A (mouse) (UniProt Q8BJ56)
T4 sequence: T1 sequence with I212A, N215A

[5] = target: T5, smt3-mATGL288-StrepII I212A (mouse) (UniProt Q8BJ56)
T5 sequence: T1 sequence with A209N, I212A

[6] = target: T6, smt3-mATGL288-StrepII N215A (mouse) (UniProt Q8BJ56)
T6 sequence: T1 sequence with A209N, N215A

Measured: binding

smt3-mCGI-58-His6 (mouse comparative gene identification-58) (from UniProt Q9DBL9 1-351)
binds: all assays above
